These are yes or no findings as the source states them, for the method shown. Binding seen in cells or lysates may run through a third protein. Some results given as binding are weak or reduced against the parent protein; the word gives no strength.
Legend:
[1] = target: PMCA4b, endogenous in red blood cells (human (endogenous in RBC)) (UniProt P23634); assay: proximity ligation; DuoLink PLA in suspension on fixed RBC (4% paraformaldehyde, 0.05% glutaraldehyde); anti-KCNN4 (rabbit) and anti-panPMCA (mouse) overnight at 4°C
[2] = target: GFP-tagged hPMCA4b WT (plasma membrane calcium-transporting ATPase 4b) (human) (UniProt P23634); assay: proximity ligation; DuoLink PLA on HEK293T cells transfected with pEGFP-hPMCA4b and/or pcDNA3-hKCNN4-HA; fixed with 4% paraformaldehyde, permeabilised with Triton X-100; anti-KCNN4 (rabbit) and anti-PMCA4b (mouse, JA3) overnight at 4°C
[3] = target: GFP-tagged hPMCA4b WT (plasma membrane calcium-transporting ATPase 4b) (human) (UniProt P23634); assay: co-IP; Pierce co-IP kit; anti-PMCA (5F10) covalently bound to agarose beads; 1 mg of cleared lysate of transfected HEK293T cells, overnight at 4°C; Western blot of the eluate; also with 5 mM vanadate added to the lysate during IP
[4] = target: GFP-tagged hPMCA4b-ct120 (PMCA4b deleted of 120 C-terminal amino acids) (human) (UniProt P23634); assay: as above

Chains of the proteins cited; added tags and fusions are not shown. Lines headed by an entry give the natural chain unless they say otherwise; changes in a name come on top. A line that says so, or that is headed by a name, gives the form on record, which may keep a tag or linker. Residues count along the entry.
GFP-tagged hPMCA4b-ct120 (PMCA4b deleted of 120 C-terminal amino acids) (P23634, residues 1-1085): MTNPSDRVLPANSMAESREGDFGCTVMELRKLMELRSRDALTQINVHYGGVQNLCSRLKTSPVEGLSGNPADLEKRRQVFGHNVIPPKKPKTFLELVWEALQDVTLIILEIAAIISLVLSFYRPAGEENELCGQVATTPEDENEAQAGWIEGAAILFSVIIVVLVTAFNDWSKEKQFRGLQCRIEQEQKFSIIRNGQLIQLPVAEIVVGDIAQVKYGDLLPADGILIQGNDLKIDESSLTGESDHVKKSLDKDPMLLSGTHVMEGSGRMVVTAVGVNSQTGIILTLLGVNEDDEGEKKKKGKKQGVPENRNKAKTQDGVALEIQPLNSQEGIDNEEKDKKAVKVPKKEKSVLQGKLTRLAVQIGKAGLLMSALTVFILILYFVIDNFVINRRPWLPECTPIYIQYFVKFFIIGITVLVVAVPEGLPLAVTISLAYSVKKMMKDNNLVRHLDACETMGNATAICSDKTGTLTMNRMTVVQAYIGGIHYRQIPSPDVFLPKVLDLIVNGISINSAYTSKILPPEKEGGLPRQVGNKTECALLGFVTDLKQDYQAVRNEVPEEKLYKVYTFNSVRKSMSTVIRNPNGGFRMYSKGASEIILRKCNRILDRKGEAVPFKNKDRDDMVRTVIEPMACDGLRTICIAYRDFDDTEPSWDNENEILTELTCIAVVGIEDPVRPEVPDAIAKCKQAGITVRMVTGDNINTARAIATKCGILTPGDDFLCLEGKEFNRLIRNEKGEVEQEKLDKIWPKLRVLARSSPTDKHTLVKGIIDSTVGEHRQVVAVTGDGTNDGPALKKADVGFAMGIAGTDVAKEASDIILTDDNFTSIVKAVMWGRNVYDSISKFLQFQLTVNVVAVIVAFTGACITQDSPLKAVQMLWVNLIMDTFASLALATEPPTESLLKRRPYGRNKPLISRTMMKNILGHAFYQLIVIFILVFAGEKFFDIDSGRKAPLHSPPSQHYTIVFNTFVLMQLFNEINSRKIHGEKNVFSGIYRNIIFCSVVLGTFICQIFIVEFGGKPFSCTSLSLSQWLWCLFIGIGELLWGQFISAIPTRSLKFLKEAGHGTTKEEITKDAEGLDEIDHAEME
GFP-tagged hPMCA4b WT (plasma membrane calcium-transporting ATPase 4b) (P23634, form named): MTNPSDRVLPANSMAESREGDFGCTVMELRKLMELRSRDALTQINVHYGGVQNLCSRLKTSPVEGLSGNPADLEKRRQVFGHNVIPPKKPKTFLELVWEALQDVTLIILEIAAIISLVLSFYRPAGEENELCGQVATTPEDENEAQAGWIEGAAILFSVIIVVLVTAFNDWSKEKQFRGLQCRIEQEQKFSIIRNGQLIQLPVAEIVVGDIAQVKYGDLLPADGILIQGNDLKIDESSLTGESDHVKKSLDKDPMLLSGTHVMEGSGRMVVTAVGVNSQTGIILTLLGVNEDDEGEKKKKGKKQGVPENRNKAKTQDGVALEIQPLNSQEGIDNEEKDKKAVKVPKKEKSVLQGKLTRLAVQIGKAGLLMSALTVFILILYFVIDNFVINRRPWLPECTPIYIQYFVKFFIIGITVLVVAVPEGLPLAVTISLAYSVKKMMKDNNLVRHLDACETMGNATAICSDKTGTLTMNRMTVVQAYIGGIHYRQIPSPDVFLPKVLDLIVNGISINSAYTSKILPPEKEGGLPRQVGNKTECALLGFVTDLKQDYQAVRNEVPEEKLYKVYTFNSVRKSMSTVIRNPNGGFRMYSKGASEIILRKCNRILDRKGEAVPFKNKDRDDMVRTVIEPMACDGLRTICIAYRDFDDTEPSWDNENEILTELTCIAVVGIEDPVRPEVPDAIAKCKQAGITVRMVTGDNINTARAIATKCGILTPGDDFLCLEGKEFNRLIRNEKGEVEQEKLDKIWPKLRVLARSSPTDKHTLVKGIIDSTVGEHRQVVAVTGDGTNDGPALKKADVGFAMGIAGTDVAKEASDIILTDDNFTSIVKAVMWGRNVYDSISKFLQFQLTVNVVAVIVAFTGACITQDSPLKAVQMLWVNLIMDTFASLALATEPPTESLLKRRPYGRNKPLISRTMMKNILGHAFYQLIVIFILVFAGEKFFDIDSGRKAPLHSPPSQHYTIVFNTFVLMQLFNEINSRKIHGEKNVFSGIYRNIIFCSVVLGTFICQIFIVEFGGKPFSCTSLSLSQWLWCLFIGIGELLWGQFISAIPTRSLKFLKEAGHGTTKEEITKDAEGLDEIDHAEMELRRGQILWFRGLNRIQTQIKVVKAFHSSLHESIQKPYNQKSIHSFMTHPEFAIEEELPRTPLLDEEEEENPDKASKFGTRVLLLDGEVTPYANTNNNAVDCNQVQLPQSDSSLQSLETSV
UniProt O15554: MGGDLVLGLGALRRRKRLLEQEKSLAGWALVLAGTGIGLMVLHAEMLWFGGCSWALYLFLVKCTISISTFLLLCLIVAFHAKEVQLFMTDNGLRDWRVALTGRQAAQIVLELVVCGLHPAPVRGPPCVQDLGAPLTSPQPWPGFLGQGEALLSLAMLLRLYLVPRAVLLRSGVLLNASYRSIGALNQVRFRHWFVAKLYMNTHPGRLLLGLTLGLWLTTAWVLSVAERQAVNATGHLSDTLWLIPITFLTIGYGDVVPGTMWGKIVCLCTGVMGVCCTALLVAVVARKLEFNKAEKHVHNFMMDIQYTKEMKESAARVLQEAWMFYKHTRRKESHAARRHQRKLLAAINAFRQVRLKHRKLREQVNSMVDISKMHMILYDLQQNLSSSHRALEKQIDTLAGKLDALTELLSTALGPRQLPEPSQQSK

binding [1]	binding [2]	binding [3]	binding [4]	Substance
binds				KCNN4, endogenous in red blood cells (from UniProt O15554 1-427)
	binds	binds	binds	hKCNN4-HA (from UniProt O15554 1-427)
